From PubChem BioAssay AID330 (DTP/NCI, 2004)
The list shows only some results of the screen, not a fair sample: it gathers tests that were run many times, whatever their T/C, doses with no T/C, and many T/C values between a quarter and a half above the control. Further doses and runs are listed elsewhere. T/C is the treated group as % of the vehicle group. Some doses have a count of surviving animals in place of a T/C: the source holds a T/C of zero for them, seemingly a mark for toxic or unscored doses. Some survivor counts are full or nearly so, which does not show that the dose was tolerated: the source hardly ever lists a survival T/C far under the control, and the zero likely stands for such cases as well. Counts of survivors are from the toxicity check (mostly the fifth day) where no day follows; animals may have died later. Schedule codes are those of the source, taken here to give the interval after Q, in days (D) or hours (H), and the number of doses after X. Some entries were tested several times; the results are listed from low to high. For survival time, the PubChem record calls one and a half times the control and up active, and a quarter to a half above the control has no call in these data; cut-offs in other NCI protocols can differ. Some T/C values are followed by the survivors on the day toxicity was checked, most often the fifth; without a count, all were alive then. Brackets with × count equal records among those shown. Some schedule codes hold Z or #, which are not explained here.

Tested on: P388 leukemia ip, CD2F1 mice, survival T/C
Assay: NCI In Vivo Anticancer Drug Screen. Data for tumor model P388 Leukemia (intraperitoneal) in CD2F1 (CDF1) mice
Details: T/C endpoint: median survival time, higher T/C = longer survival
[1] = dose: 50.0 mg/kg/injection, schedule: Q01DX009 (ip), vehicle: Klucel (hydroxypropylcellulose) (HPC)

## O=P1(N(CCCl)CCCl)NCCCO1 (stereo not drawn)
dose: 50.0 mg/kg/injection, schedule: Q01DX001 (ip), vehicle: saline, evaluated on day 10
  T/C: 148 % of control
dose: 50.0 mg/kg/injection, schedule: Q01DX001 (ip), vehicle: saline, evaluated on day 60
  T/C: 135 % of control
dose: 50.0 mg/kg/injection, schedule: Q01DX005 (ip), vehicle: Klucel (hydroxypropylcellulose) (HPC), evaluated on day 30
  T/C: 95, 113, 115, 118, 146, 163, 222, 226, 240 (2×), 245 (2×), 249, 250 (2×), 252, 252 [5 of 6 alive], 256, 258, 260, 266, 267, 272, 276, 277 (2×), 279, 285, 288 (3×), 294 (2×), 299 % of control
dose: 50.0 mg/kg/injection, schedule: Q01DX005 (ip), vehicle: Klucel (hydroxypropylcellulose) (HPC), evaluated on day 35
  T/C: 343 % of control
dose: 50.0 mg/kg/injection, schedule: Q01DX005 (ip), vehicle: saline, evaluated on day 30
  T/C: 178, 201, 275, 294 (3×), 297, 309 % of control
dose: 50.0 mg/kg/injection, schedule: Q01DX005 (ip), vehicle: saline, evaluated on day 45
  T/C: 346 and 354 % of control
[1]
  T/C: 90, 97, 107, 109, 112, 119, 123, 127, 134, 143, 144, 146, 159, 163, 164, 166, 169, 170, 177, 182, 215, 219, 221, 232, 236, 254, 263, 265, 276, 278, 286, 290, 291, 309 % of control
  survivor count: 6 of 6
dose: 50.0 mg/kg/injection, schedule: Q01DX009 (ip), vehicle: saline, evaluated on day 5
  T/C: 437 % of control
dose: 50.0 mg/kg/injection, schedule: Q01DX009 (ip), vehicle: saline, evaluated on day 30
  T/C: 159, 233, 268, 291 % of control
dose: 50.0 mg/kg/injection, schedule: Q04DX002 (ip), vehicle: Klucel (hydroxypropylcellulose) (HPC)
  T/C: 142, 152, 157, 162, 166, 175, 181, 197, 198, 204, 209, 210, 211 (2×), 213, 215 (2×), 216, 218 [5 of 6 alive], 219, 227, 232, 233, 241 (2×), 242 (2×), 257, 258, 263, 264, 265, 270 (2×), 284 % of control
dose: 50.0 mg/kg/injection, schedule: Q04DX003 (ip), vehicle: Klucel (hydroxypropylcellulose) (HPC), evaluated on day 30
  T/C: 129, 146, 151, 154, 163, 174, 179, 194, 209, 213, 214, 220, 222, 228 (2×), 232, 236 (2×), 238, 245, 247 (2×), 250, 251, 252 (3×), 254, 257, 263, 271, 275, 277, 280, 297 % of control
dose: 50.0 mg/kg/injection, schedule: Q04DX003 (ip), vehicle: Klucel (hydroxypropylcellulose) (HPC), evaluated on day 35
  T/C: 308 % of control
dose: 50.0 mg/kg/injection, schedule: Q04DX003 (ip), vehicle: saline, evaluated on day 30
  T/C: 248 % of control
dose: 50.0 mg/kg/injection, schedule: Q04DX003 (ip), vehicle: saline, evaluated on day 45
  T/C: 212 and 230 % of control
dose: 50.0 mg/kg/injection, schedule: Q04DX003 (ip), vehicle: saline, evaluated on day 50
  T/C: 236 % of control
dose: 50.0 mg/kg/injection, schedule: Q## X001 (ip), vehicle: saline
  T/C: 100, 111, 118, 123 % of control
dose: 60.0 mg/kg/injection, schedule: Q01DX010 (ip), vehicle: water
  T/C: 145 % of control
dose: 75.0 mg/kg/injection, schedule: Q01DX001 (ip), vehicle: saline, evaluated on day 5
  T/C: 151 and 155 % of control
dose: 75.0 mg/kg/injection, schedule: Q01DX001 (ip), vehicle: saline, evaluated on day 9
  T/C: 94, 123, 143, 160, 179, 195, 197 % of control
dose: 80.0 mg/kg/injection, schedule: Q01DX005 (ip), vehicle: saline, evaluated on day 9
  T/C: 230 % of control
dose: 80.0 mg/kg/injection, schedule: Q01DX005 (ip), vehicle: saline, evaluated on day 30
  T/C: 98, 100, 133, 198, 225 [5 of 6 alive], 247 [5 of 6 alive], 250, 255, 265 (3×), 270, 275, 277, 285, 294 (2×), 297 (3×), 300 (5×), 309 % of control
dose: 80.0 mg/kg/injection, schedule: Q01DX005 (ip), vehicle: saline, evaluated on day 35
  T/C: 110 % of control
dose: 80.0 mg/kg/injection, schedule: Q01DX005 (ip), vehicle: saline, evaluated on day 60
  T/C: 550 and 582 % of control
dose: 80.0 mg/kg/injection, schedule: Q01DX005 (ip), vehicle: saline
  survivor count: 6 of 6
dose: 80.0 mg/kg/injection, schedule: Q01DX009 (ip), vehicle: saline, evaluated on day 30
  T/C: 89, 97, 99, 100 (2×), 105 [5 of 6 alive], 150, 159, 172, 175, 178, 190, 191, 254, 270 (3×), 283, 285 (2×), 290, 297 (2×), 300 % of control (3×)
dose: 80.0 mg/kg/injection, schedule: Q01DX009 (ip), vehicle: saline, evaluated on day 35
  T/C: 168 % of control
dose: 80.0 mg/kg/injection, schedule: Q01DX009 (ip), vehicle: saline, evaluated on day 45
  T/C: 107 % of control
dose: 80.0 mg/kg/injection, schedule: Q01DX009 (ip), vehicle: saline, evaluated on day 60
  T/C: 146 and 582 % of control
dose: 80.0 mg/kg/injection, schedule: Q01DX009 (ip), vehicle: saline
  survivor count: 5 of 5 and 6 of 6
dose: 100.0 mg/kg/injection, schedule: Q01DX001 (ip), vehicle: Klucel (hydroxypropylcellulose) (HPC), evaluated on day 30
  T/C: 101, 138, 167 [4 of 6 alive], 184, 190, 206, 208 (2×), 209, 214, 221, 237, 238, 241 (2×), 245 (2×), 247, 252 (2×), 254 (2×), 263, 264, 276, 283, 291, 294 % of control (2×)
dose: 100.0 mg/kg/injection, schedule: Q01DX001 (ip), vehicle: Klucel (hydroxypropylcellulose) (HPC), evaluated on day 35
  T/C: 250 % of control
dose: 100.0 mg/kg/injection, schedule: Q01DX001 (ip), vehicle: Klucel (hydroxypropylcellulose) (HPC)
  survivor count: 3 of 3 and 6 of 6
dose: 100.0 mg/kg/injection, schedule: Q01DX001 (ip), vehicle: saline, evaluated on day 5
  T/C: 181, 194 (2×), 202 % of control
dose: 100.0 mg/kg/injection, schedule: Q01DX001 (ip), vehicle: saline, evaluated on day 9
  T/C: 96, 115, 135 % of control
dose: 100.0 mg/kg/injection, schedule: Q01DX001 (ip), vehicle: saline, evaluated on day 10
  T/C: 190 % of control
dose: 100.0 mg/kg/injection, schedule: Q01DX001 (ip), vehicle: saline, evaluated on day 21
  T/C: 194 % of control
dose: 100.0 mg/kg/injection, schedule: Q01DX001 (ip), vehicle: saline, evaluated on day 30
  T/C: 167 [5 of 6 alive], 175, 179, 186, 193, 200 (2×), 208, 209, 215 (2×), 216 (2×), 217, 218, 230 (2×), 233, 247, 254, 258, 260, 265, 268, 294, 297 % of control
dose: 100.0 mg/kg/injection, schedule: Q01DX001 (ip), vehicle: saline, evaluated on day 35
  T/C: 233 % of control
dose: 100.0 mg/kg/injection, schedule: Q01DX001 (ip), vehicle: saline, evaluated on day 60
  T/C: 120, 174, 181 % of control
dose: 100.0 mg/kg/injection, schedule: Q01DX001 (ip), vehicle: saline
  survivor count: 6 of 6
dose: 100.0 mg/kg/injection, schedule: Q01DX005 (ip), vehicle: Klucel (hydroxypropylcellulose) (HPC), evaluated on day 30
  T/C: 87, 92, 94, 104, 106, 111, 114, 116, 117, 125, 127, 129, 132, 134, 156, 159, 161, 163, 171, 176, 222, 250, 251, 256, 265, 277, 288 (2×), 294, 297 % of control
dose: 100.0 mg/kg/injection, schedule: Q01DX005 (ip), vehicle: Klucel (hydroxypropylcellulose) (HPC), evaluated on day 35
  T/C: 137 % of control
